According to PubChem BioAssay AID504467 (National Center for Advancing Translational Sciences (NCATS), 2011):
Screen size: about 330,000 compounds; about 7,700 (2.3%) were called active. The inconclusive results got no clear call from the source; some entries with a clear call stand among them for comparison. Calls come from the whole dose curve; as a rule, active = well fitted inhibition curve with a large enough effect; inconclusive = small, poorly fitted or top-dose-only effect, or effect the other way; inactive = flat fitted curve, though single readings scatter. Where the call is inconclusive, the potency comes from a doubtful curve fit.

Assay: qHTS screen for small molecules that inhibit ELG1-dependent DNA repair in human embryonic kidney (HEK293T) cells expressing luciferase-tagged ELG1; note: nearly all actives have a fitted effect of over 55% in size
Conditions: HEK293T ELG1-luciferase reporter, luminescence, 16 h, DNA damage induced by 5-fluorouridine; activity change, negative = inhibition: at 46.1 µM (top of the series)
Outline: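 Step one: seed 2,000 cells per well. Step two: pin-transfer compound or DMSO alongside 5-fluorouridine. Step three: incubate 16 hr, 37 °C, 5% CO2. Step four: add ONE-Glo, wait 30 min, read luminescence.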
% is set by controls: 0 for no effect and ±100 for the full control effect; potency is the fitted concentration of half-maximal effect.

SMILES	Potency	activity change, negative = inhibition
CCOc1ccccc1NC(=O)C(C)N1C(=O)c2ccccc2S1(=O)=O (stereo not drawn)	inconclusive: 23.1 µM [activator, partial curve, poor fit]	
Cc1ccc2nc(-c3ccc(NC(=O)c4ccco4)cc3)[nH]c2c1	inconclusive: 2.91 µM [activator, partial curve]	
Cc1cc(OCc2nc3ccccc3s2)ccc1N	inconclusive: 2.31 µM [activator, partial curve]	
COc1ccc(-c2c(-c3cc(OC)cc(OC)c3)n(C)c3ccc(-c4ccc(OC)cc4F)cc23)cc1		inactive: 20.3%
CCN(Cc1nc2ccccc2c(=O)[nH]1)C(=O)c1cc(C2CC2)nn1-c1ccccc1	inconclusive: 14.6 µM [inhibitor, partial curve, poor fit]	
CC(C)CC(=O)Nc1ccc(-c2cn3ccsc3n2)cc1	inconclusive: 0.58 µM [activator, full curve]	
Cc1cccc(N2CCN(C(=O)c3ccc(Cl)c(S(=O)(=O)N4CCc5ccccc5C4)c3)CC2)c1C	inconclusive: 16.4 µM [inhibitor, partial curve, poor fit]	
COc1cccc(-c2nc(-c3ccc(NC(=O)Cc4ccccc4OC)cc3)no2)c1	inconclusive: 14.6 µM [inhibitor, partial curve]	
O=C(NCCc1ccccc1)/C(=N\O)c1ccccc1	inconclusive: 13 µM [activator, partial curve]	
Cc1ccc(-c2csc(Nc3ccccn3)n2)cc1	inconclusive: 1.64 µM [activator, full curve]	
O=C(/C=C/c1cccc([N+](=O)[O-])c1)Nc1ccc(Cl)cn1		inactive: 9.19%
COc1cc(C=O)ccc1Oc1nc(Nc2ccc(F)cc2F)nc(N2CCOCC2)n1	inconclusive: 20.6 µM [inhibitor, single point]	
CCCCNc1ccc(C(=O)O)cc1	inconclusive: 18.3 µM [activator, single point]	
O=C(CSc1nc2ccc(Nc3nc(N4CCCC4)nc(N4CCCC4)n3)cc2s1)NCc1ccco1	inconclusive: 2.91 µM [inhibitor, partial curve, poor fit]	
C#CCOc1c(Br)cc(/C=C2/C(=O)ON=C2C)cc1OC		inactive: -3.13%
COc1ccc2sc(-c3ccc(SC)cc3)c(C#CCO)c2c1	inconclusive: 29.1 µM [inhibitor, single point]	
COc1ccc(/C(C)=N/N=C(N)N)c(OC)c1	inconclusive: 20.6 µM [inhibitor, partial curve]	
CN(Cc1nc(Cc2cccc(F)c2)no1)CC1COCCO1 (stereo not drawn)		inactive: -3.38%
O=C(OCC(=O)N1CCCc2ccccc21)c1ccc(F)c(S(=O)(=O)N2CCOCC2)c1		inactive: -11.2%
CC(C)=CC(=O)O[C@@H]1Cc2c(ccc3ccc(=O)oc23)OC1(C)C	inconclusive: 20.6 µM [activator, partial curve, poor fit]	
Cc1noc(C)c1CSCC(=O)Nc1nnc(CC(C)C)s1		inactive: 5.64%
NC(=O)CC(NC(=O)c1ccccc1)c1ccc(NCCN2CCCCC2)c([N+](=O)[O-])c1 (stereo not drawn)	inconclusive: 20.6 µM [inhibitor, single point]	
CS(=O)(=O)N(CC(=O)N1CCN(c2ccccc2)CC1)c1ccc(Cl)c(C(F)(F)F)c1	inconclusive: 20.6 µM [inhibitor, single point]	

Three entries from above, field by field.
O=C(CSc1nc2ccc(Nc3nc(N4CCCC4)nc(N4CCCC4)n3)cc2s1)NCc1ccco1
  Potency: inconclusive: 2.91 µM [inhibitor, partial curve, poor fit]
C#CCOc1c(Br)cc(/C=C2/C(=O)ON=C2C)cc1OC
  activity change, negative = inhibition: inactive: -3.13%
COc1ccc2sc(-c3ccc(SC)cc3)c(C#CCO)c2c1
  Potency: inconclusive: 29.1 µM [inhibitor, single point]

(further entries)

SMILES	Potency	activity change, negative = inhibition
CCN(CC)CCCn1c(SCC(=O)Nc2cccc(F)c2)nnc1-c1ccoc1C		inactive: 19.4%
O=S(=O)(NCCc1ccccc1)c1cnc(Cl)c(Br)c1		inactive: 0.26%
O=C(CN(c1ccccc1Cl)S(=O)(=O)c1ccccc1)NCc1ccccc1		inactive: -25.3%
Cc1ccc(NS(=O)(=O)c2ccc(-n3cccn3)cc2)cc1F		inactive: -4.73%
Cc1csc(SCC(=O)Nc2cc(C(C)(C)C)nn2-c2ccccc2)n1	inconclusive: 22.4 µM [inhibitor, single point]	
CCOC(=O)C1=C(C)NC(C)=C(C(=O)OCC)C1C(=O)OCC(N)=O		inactive: 0.274%
CCC(=O)N1CCc2cc(OC)c(OC)cc2C1COc1ccc(C(=O)OC)cc1 (stereo not drawn)	active: 2.59 µM	
Cc1nn(Cc2ccccc2)c(C)c1C(=O)OCC(=O)c1cc(C)n(C2CC2)c1C	inconclusive: 18.4 µM [inhibitor, single point]	
CNC(=O)COc1ccc(-c2nn(C)c(=O)c3ccccc23)cc1	inconclusive: 20.6 µM [activator, partial curve]	
O=C(O)CCN1c2ccccc2Sc2ccccc21		inactive: 11.6%
CCCOc1ccc(C(=O)C(CN2CCCC2)c2ccccc2)cc1 (stereo not drawn)	active: 18.4 µM	
Cc1ccc(NC(=O)CCNS(=O)(=O)c2ccc3c(c2)CCC(=O)N3)cc1C	inconclusive: 32.6 µM [activator, partial curve, poor fit]	
COc1ccc(/C=N/NC(=O)CSc2ccccc2)cc1OC		inactive: 15.9%
Cc1ccc(C(C)C)c(OCc2nnc(SCC(=O)Nc3ncc(C)s3)n2C)c1	inconclusive: 4.61 µM [inhibitor, single point]	
O=C(Nc1nnc(SCc2ccc(F)cc2)s1)c1ccccn1	inconclusive: 29.1 µM [activator, single point]	
O=C(NC1CCS(=O)(=O)C1)/C(=C\c1ccco1)NC(=O)c1ccccc1 (stereo not drawn)		inactive: 0%
CC1(C)CC[C@]2(C(=O)O[C@@H]3OC(CO)[C@@H](O)[C@H](O)[C@H]3O)CC[C@]3(C)C(=CCC4[C@@]5(C)CC[C@H](O[C@@H]6OC(C(=O)O)[C@@H](O)[C@H](O)[C@H]6O)C(C)(C)C5CC[C@]43C)[C@@H]2C1 (stereo partly drawn)	inconclusive: 29.1 µM [activator, single point]	
CCCN(CCC)S(=O)(=O)c1ccc(C(=O)Nc2nnc(-c3cccc(OC)c3)o2)cc1	inconclusive: 20.6 µM [inhibitor, partial curve, poor fit]	
O=C(Nc1ccc2c(c1)OCO2)c1ccc2nc[nH]c2c1	inconclusive: 11.6 µM [activator, partial curve]	
CCN1C(=O)[C@H]2[C@@H](c3ccc(-c4ccccc4)cc3)N3CCC[C@@]3(C(=O)OC)[C@H]2C1=O	inconclusive: 28.2 µM [inhibitor, single point]	
c1ccc2c(c1)CCc1c(-c3ccncc3)n[nH]c1-2	inconclusive: 16.4 µM [activator, partial curve]	
CC(=O)N1N=C(c2ccc(C)cc2)CC1c1ccc2c(c1)OCO2 (stereo not drawn)	inconclusive: 13 µM [activator, partial curve]	
Cc1cccc(C)c1N1CCN(c2ccc3nnc(C(F)(F)F)n3n2)CC1	inconclusive: 18.4 µM [activator, single point]	

2 records drawn at random from those above, as already listed:
SMILES	Potency	activity change, negative = inhibition
O=C(Nc1nnc(SCc2ccc(F)cc2)s1)c1ccccn1	inconclusive: 29.1 µM [activator, single point]	
O=C(Nc1ccc2c(c1)OCO2)c1ccc2nc[nH]c2c1	inconclusive: 11.6 µM [activator, partial curve]	

Following part:

SMILES	Potency	activity change, negative = inhibition
O=C(CN(Cc1ccccc1Cl)C(=O)c1csnn1)NCc1ccc2c(c1)OCO2		inactive: -5.17%
Cc1ccc2nc(N/C(N)=N/S(=O)(=O)c3ccc([N+](=O)[O-])cc3)nc(C)c2c1	inconclusive: 25.9 µM [inhibitor, single point]	
COc1ccc(C(=O)N=c2sccn2C)cc1	inconclusive: 20.6 µM [activator, partial curve]	
COc1ccccc1C(=O)Nc1cc(Cl)ccc1-n1cncn1	inconclusive: 6.51 µM [inhibitor, single point]	
O=C1CC(N2CCN(c3ccc(O)cc3)CC2)C(=O)N1c1ccc2c(c1)OCO2 (stereo not drawn)		inactive: 3.55%
O=C1C(C=NCc2ccccn2)=C(O)c2ccccc21	inconclusive: 13 µM [activator, partial curve]	
CCOC(=O)N1CCN(S(=O)(=O)c2cc(-c3nn4c(C)nnc4c4ccccc34)ccc2C)CC1		inactive: 12.1%
COc1ccc(NC(=S)NC(=O)c2ccccc2Cl)cc1	inconclusive: 29.1 µM [activator, single point]	
CCOC(=O)C1(Cc2ccc(OC)cc2)CCN(C(=O)c2sc(C)nc2C)CC1	inconclusive: 16.4 µM [inhibitor, single point]	
CCN(CC)C(=O)CN1C(=O)NC2(CCc3ccccc3C2)C1=O (stereo not drawn)		inactive: 4.73%
C=CC[C@@H](CC(=O)OC(C)(C)C)C(=O)OC[C@@H]1CCCN1C(=O)[C@@H](CC=C)CC(=O)N(CCO)Cc1ccccc1	inconclusive: 29.1 µM [inhibitor, single point]	
COc1cc(-c2nn3c(-c4ccccc4)nnc3s2)cc(OC)c1OC	inconclusive: 6.51 µM [inhibitor, full curve]	
Cc1cccc(NCc2nc(SCC(=O)Nc3ccccc3Br)n[nH]2)c1	inconclusive: 29.1 µM [inhibitor, partial curve, poor fit]	
O=C(Nc1cccc(S(=O)(=O)c2cccc(NC(=O)c3ccco3)c2)c1)c1ccco1	active: 23.1 µM	
O=C(NC(=S)Nc1ccccc1)c1cc(-c2ccccc2)nc2ccccc12		inactive: -15.6%
COc1ccc2c3n(nc2c1)CCN=C3c1cc(Cl)c(N)c(Cl)c1	inconclusive: 35.5 µM [inhibitor, single point]	
COc1ccc(Cl)cc1NC(=O)CN(C)CC(=O)NCc1cccs1		inactive: -2.35%
Cc1cc(O)c(S(=O)(=O)c2ccccc2)c(C)c1NS(=O)(=O)c1ccccc1	inconclusive: 14.6 µM [inhibitor, partial curve, poor fit]	
CCNC(=S)N1CCc2cc(OC)c(OC)cc2C1COc1ccc(OC)cc1 (stereo not drawn)	inconclusive: 20.6 µM [inhibitor, partial curve]	
COc1ccc(OC)c(/C=N/NC(=O)CCc2ccc(O)c(O)c2)c1		inactive: 1.53%
Cc1ccc(NC(=O)CN2C(=O)S/C(=C\c3cc(Cl)c(OCC(=O)O)c(Cl)c3)C2=O)cc1		inactive: 3.49%
Cc1ccc(-c2nc3sc(C#N)c(N)n3c(=O)c2C#N)cc1	inconclusive: 23.1 µM [activator, single point]	
